Laboratory results taken from patent US11713435B2, “Aminocarboxylate chelating agents and detergent compositions containing them” (EASTMAN CHEMICAL COMPANY, priority 2018, dated 2023).

Assay: Stain removal of liquid laundry cleaning compositions on stained fabric swatches (ASTM D4265)
Conditions: composition of Table 2 with 2.0 wt % chelating agent

Row | SMILES | stain removal index (SRI) (stain: Motor Oil) | stain removal index (SRI) (stain: animal fat/red dye) | stain removal index (SRI) (stain: babyfood) | stain removal index (SRI) (stain: beta-carotene) | stain removal index (SRI) (stain: blood) | stain removal index (SRI) (stain: butter) | stain removal index (SRI) (stain: clay) | stain removal index (SRI) (stain: curry) | stain removal index (SRI) (stain: dessert (chocolate)) | stain removal index (SRI) (stain: grass) | stain removal index (SRI) (stain: make-up) | stain removal index (SRI) (stain: peat) | stain removal index (SRI) (stain: red wine) | stain removal index (SRI) (stain: tea) | stain removal index (SRI) (stain: tomato sauce)
1 | O=C(O)CN(CCN(CC(=O)O)CC(=O)O)CCN(CC(=O)O)CC(=O)O [DTPA, reference compound] | 38.51 | 5.93 | 30.70 | 34.09 | 80.56 | 13.76 | 22.23 | 18.07 | 41.71 | 49.99 | 12.79 | 49.81 | 27.93 | 4.29 | 19.00
2 | O=C(O)CN(CCN(CC(=O)O)CC(=O)O)CC(=O)O [EDTA, reference compound] | 37.43 | 7.49 | 28.50 | 38.62 | 81.31 | 12.78 | 18.32 | 21.03 | 44.56 | 53.50 | 15.09 | 52.40 | 27.77 | 5.46 | 18.85
3 | CC(CC(=O)[O-])N(CC(=O)[O-])CC(=O)[O-].[Na+].[Na+].[Na+] (stereo not drawn) [I, trisodium 2,2′-((1-carboxypropan-2-yl)azanediyl)diacetate] | 35.46 | 5.17 | 31.45 | 33.50 | 81.16 | 11.38 | 23.72 | 19.75 | 42.46 | 50.49 | 13.78 | 49.99 | 26.11 | 5.53 | 24.83
4 | CC(C)(CNC(CC(=O)[O-])C(=O)[O-])CNC(CC(=O)[O-])C(=O)[O-].[Na+].[Na+].[Na+].[Na+] (stereo not drawn) [II, tetrasodium 2,2′-((2,2-dimethylpropane-1,3-diyl)bis(azanediyl))disuccinate] | 36.58 | 5.46 | 32.26 | 38.40 | 81.81 | 11.95 | 24.22 | 18.43 | 44.02 | 54.10 | 14.31 | 53.70 | 25.77 | 4.77 | 20.90
5 | O=C([O-])CN(CC(=O)[O-])CC1CCC(CN(CC(=O)[O-])CC(=O)[O-])CC1.[Na+].[Na+].[Na+].[Na+] (stereo not drawn) [III, tetrasodium 2,2′,2″,2″-((cyclohexane-1,4-diylbis(methylene))bis(azanetriyl))tetraacetate] | 35.83 | 6.11 | 26.30 | 39.38 | 78.33 | 9.73 | 17.93 | 17.44 | 33.02 | 50.90 | 11.97 | 50.69 | 24.64 | 3.13 | 21.67
6 | O=C([O-])CC(NCC1CCC(CNC(CC(=O)[O-])C(=O)[O-])CC1)C(=O)[O-].[Na+].[Na+].[Na+].[Na+] (stereo not drawn) [IV, Tetrasodium 2,2′-((cyclohexane-1,4-diylbis(methylene))bis(azanediyl))disuccinic acid] | 35.09 | 4.66 | 33.07 | 39.74 | 81.76 | 3.73 | 21.51 | 17.19 | 40.09 | 50.01 | 11.84 | 51.32 | 22.46 | 3.26 | 22.23
